Data on 3 substances can be found in article PMC6303091.

No constants are given. Whether binding was seen depends on the method and setting. Binding can be weak; no strength is given.

This test addresses T1, TOPLESS amino-terminal region (TPL-N), bait (A. thaliana) (UniProt Q94AI7).
T1 sequence: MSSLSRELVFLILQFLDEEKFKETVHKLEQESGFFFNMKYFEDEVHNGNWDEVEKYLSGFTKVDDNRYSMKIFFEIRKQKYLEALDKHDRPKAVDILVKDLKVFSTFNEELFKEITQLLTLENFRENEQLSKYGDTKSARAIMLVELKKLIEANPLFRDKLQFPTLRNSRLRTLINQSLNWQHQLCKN
As to the kind of experiment: two-hybrid; library screen (Y2H-seq): PJ69-4α bait strain transformed with the A. thaliana AT7 cDNA prey library; SD-Leu-Trp-His + 5 mM 3-AT; preys identified by Sanger sequencing of colonies, qPCR and NGS of pooled prey inserts, against an EMPTY bait screen or the library.
Consider AT3G05670, library prey (A. thaliana), for which the binding entry was “binds”. To AT3G54390, library prey (A. thaliana) belongs “binds”; to AT2G40260, library prey (A. thaliana), “binds”.
